Like-named read-outs stand apart in the source and are kept apart here. These are yes or no findings as the source states them, for the method shown. Binding seen in cells or lysates may run through a third protein. Here binding means that the protein was enriched with, or labelled near, the bait; the list need not be complete. Tags and fused reporters may be left off the sequences shown. Each block holds one molecule with its values, some of them ahead of it.
Legend:
[1] = molecular target: T1, HA-TurboID RNF12 (UniProt Q9WTV7); test: proximity labelling
T1 sequence: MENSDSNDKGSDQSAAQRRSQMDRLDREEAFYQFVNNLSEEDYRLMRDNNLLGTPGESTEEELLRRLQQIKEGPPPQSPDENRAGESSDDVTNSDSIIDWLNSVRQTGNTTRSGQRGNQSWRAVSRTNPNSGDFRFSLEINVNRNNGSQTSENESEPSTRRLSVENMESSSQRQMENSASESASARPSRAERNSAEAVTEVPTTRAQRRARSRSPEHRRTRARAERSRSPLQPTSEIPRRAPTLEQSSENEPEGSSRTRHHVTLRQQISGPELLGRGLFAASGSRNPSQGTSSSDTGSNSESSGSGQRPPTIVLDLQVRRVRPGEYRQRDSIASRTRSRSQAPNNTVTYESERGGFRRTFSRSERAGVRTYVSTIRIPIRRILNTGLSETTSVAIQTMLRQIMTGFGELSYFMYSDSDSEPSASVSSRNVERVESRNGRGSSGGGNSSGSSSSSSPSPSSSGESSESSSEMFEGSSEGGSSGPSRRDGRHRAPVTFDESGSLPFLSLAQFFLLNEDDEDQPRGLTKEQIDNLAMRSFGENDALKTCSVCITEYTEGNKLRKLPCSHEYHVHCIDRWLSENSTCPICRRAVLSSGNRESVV

[2] = molecular target: T1, HA-TurboID RNF12; test: proximity labelling; remark: listed apart in the source

binding [1]: binds
Molecule: REX1/ZFP42 (endogenous, mESCs) (from UniProt P22227 1-288)

binding [1]: binds
Molecule: PCNA (from UniProt P17918 1-261)

binding [2]: binds
B1: WRNIP1 (protein, UniProt Q91XU0 1-660)
chain: MEVSGPEDDPFLSQLHQVQCPVCQQMMPAAHINSHLDRCLLLHPAGHAEPAAGSHRAGERAKGPSPPGAKRRRLSESSALKQPATPTAAESSEGEGEEGDDGGETESRESYDAPPTPSGARLIPDFPVARSSSPARKGMGKRPAAAAAAGSASPRSWDEAEAQEEEEAGVDGDGDADVDGEDDPGHWDADAADASFGVSAGRAHPRALAAEEIRQMLEGKPLADKMRPDTLQDYIGQSRAVGQETLLRSLLEANEIPSLILWGPPGCGKTTLAHIIANNSKKHSIRFVTLSATNAKTNDVRDVIKQAQNEKSFFKRKTILFIDEIHRFNKSQQDTFLPHVECGTITLIGATTENPSFQVNAALLSRCRVIVLEKLPVEAMVTILMRAINSLGIHVLDSSRPTDPLSHSSNCSSEPSVFIEDKAVDTLAYLSDGDARTGLNGLQLAVLARLSSRKVFCKKSGQTYSPSRVLITENDVKEGLQRSHILYDRAGEEHYNCISALHKAMRGSDQNASLYWLARMLEGGEDPLYVARRLVRFASEDIGLADPSALAQAVAAYQGCHFIGMPECEVLLAQCVVYFARAPKSIEVYSAYNNVKACLRSHQGPLPPVPLHLRNAPTRLMKDLGYGKGYKYNPMYSEPVDQDYLPEELRGVDFFKQRRC

Source: paper doi:10.1101/2023.06.14.544957
